Results deposited as PubChem BioAssay AID1259405 (NCATS, 2018).
The deposit covers about 50,000 reagents; this is an unselected part. About 4,000 of them (8%) count as active. 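Mouse siRNA library applied to hamster cells; one well for each siRNA.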 Unmarked entries are inactive. The numbers tell different reagents against one gene apart. No sequences are given here.

Purpose: 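Knock-downs that lift recombinant protein yield in hamster ovary cells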 (primary screen)
System: Chinese hamster CHO-K1 ovary cells with stable secreted eGFP expression
Knock-down reagent: single siRNA against mouse genes, 0.8 pmol siRNA per well (2 µl of 400 nM stock)
Timing: 3 days
Detection: 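Per-well intracellular GFP measured by laser scanning cytometry, plus viability from ATP luminescence, each relative to plate median of non-targeting control wells, in %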
Scale: GFP, % of control: higher = more GFP per well, higher productivity; viability (ATP), % of control: higher = more viable cells (more ATP)
Active means: 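Called active when intracellular GFP, relative to negative control, is at or above 120%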

| gene | siRNA no. | GFP, % of control | viability (ATP), % of control |
| --- | --- | --- | --- |
| Spag1 | 1 | 127 (active) | 120 |
| Spag1 | 2 | 103 | 83.7 |
| Or6c69c | 1 | 105 | 88.9 |
| Or6c69c | 2 | 69.1 | 65.2 |
| Or6c69c | 3 | 56.6 | 64.6 |
| Ugt2b36 | 1 | 67.9 | 57.6 |
| Ugt2b36 | 2 | 69.3 | 80.7 |
| Ugt2b36 | 3 | 69.9 | 42.5 |
| Ssx2ip | 1 | 51 | 53.6 |
| Ssx2ip | 2 | 88.1 | 100 |
| Ssx2ip | 3 | 104 | 80.5 |
| Prelid1 | 1 | 55.5 | 58.8 |
| Prelid1 | 2 | 46.8 | 82.5 |
| Prelid1 | 3 | 97.6 | 107 |
| Foxd1 | 1 | 40.8 | 94.1 |
| Foxd1 | 2 | 76 | 63 |
| Mpdz | 1 | 61.6 | 72.1 |
| Mpdz | 2 | 93.9 | 104 |
| Mpdz | 3 | 92.2 | 84.5 |
| 2810408A11Rik | 1 | 41.9 | 47.6 |
| 2810408A11Rik | 2 | 99.7 | 80.9 |
| 2810408A11Rik | 3 | 80.6 | 115 |
| Or8s16 | 1 | 85 | 93.1 |
| Or8s16 | 2 | 93.1 | 83.8 |
| Or8s16 | 3 | 75.5 | 78.1 |
| Bmpr2 | 1 | 67.8 | 75.7 |
| Mthfr | 1 | 87.3 | 97.3 |
| Mthfr | 2 | 136 (active) | 103 |
| Mthfr | 3 | 61.6 | 64 |
| Zbtb8b | 1 | 46.3 | 48.4 |
| Zbtb8b | 2 | 66.3 | 69.5 |
| Zbtb8b | 3 | 70.9 | 99.4 |
| Nucb2 | 1 | 132 (active) | 122 |
| Nucb2 | 2 | 94.9 | 89.5 |
| 1110059E24Rik | 1 | 58.9 | 72.1 |
| 1110059E24Rik | 2 | 94 | 66.7 |
| 1110059E24Rik | 3 | 55 | 72 |

The list goes on; the last 2 above are carried over.
| gene | siRNA no. | GFP, % of control | viability (ATP), % of control |
| --- | --- | --- | --- |
| 1110059E24Rik | 2 | 94 | 66.7 |
| 1110059E24Rik | 3 | 55 | 72 |
| Kif20a | 1 | 38.6 | 60.5 |
| Kif20a | 2 | 94.5 | 86.9 |
| Slfn5 | 1 | 66 | 38.6 |
| Slfn5 | 2 | 58.6 | 56.4 |
| Slfn5 | 3 | 51.8 | 44.1 |
| D8Ertd738e | 1 | 77 | 82.9 |
| D8Ertd738e | 2 | 145 (active) | 109 |
| D8Ertd738e | 3 | 136 (active) | 89.7 |
| Slc39a5 | 1 | 192 (active) | 30 |
| Slc39a5 | 2 | 86.4 | 54.2 |
| Slc39a5 | 3 | 69.1 | 59.4 |
| Myo1e | 1 | 74.3 | 65.2 |
| Myo1e | 2 | 91.2 | 120 |
| 1700102P08Rik | 1 | 89.6 | 69.5 |
| 1700102P08Rik | 2 | 110 | 101 |
| 1700102P08Rik | 3 | 68.2 | 53.8 |
| Pcdhga1 | 1 | 109 | 75.5 |
| Pcdhga1 | 2 | 62.9 | 61.2 |
| Pcdhga1 | 3 | 51.8 | 60.7 |
| Tas2r130 | 1 | 87.7 | 92.4 |
| Tas2r130 | 2 | 63.1 | 56.4 |
| Tas2r130 | 3 | 45.3 | 58.3 |
| Tirap | 1 | 91.1 | 92.7 |
| Tirap | 2 | 84.1 | 62.2 |
| Tirap | 3 | 86 | 92.8 |
| Tesmin | 1 | 77.6 | 89.5 |
| Tesmin | 2 | 73.9 | 87.7 |
| Tesmin | 3 | 72.5 | 50.3 |
| Lcn9 | 1 | 119 | 129 |
| Lcn9 | 2 | 118 | 93.2 |
| Lcn9 | 3 | 76.9 | 54 |
| Grtp1 | 1 | 152 (active) | 76.6 |
| Grtp1 | 2 | 73.3 | 92.9 |
| Grtp1 | 3 | 25.1 | 22.8 |
| B2m | 1 | 80.3 | 75.6 |
| B2m | 2 | 87.1 | 74.9 |
| B2m | 3 | 60.2 | 53.7 |
| Akr1e1 | 1 | 93.7 | 71.1 |
| Akr1e1 | 2 | 71.8 | 59.6 |
| Akr1e1 | 3 | 96.5 | 61.1 |
| Rnf8 | 1 | 51.5 | 73.2 |
| Rnf8 | 2 | 35.6 | 38.8 |
| Rnf8 | 3 | 53.9 | 72.7 |
| Eif2b5 | 1 | 125 (active) | 115 |
| Eif2b5 | 2 | 118 | 81.5 |
| Eif2b5 | 3 | 85.2 | 82.3 |
| Or5al5 | 1 | 120 | 77 |
| Or5al5 | 2 | 116 | 59.3 |
| Or5al5 | 3 | 78 | 73.8 |
| Myd88 | 1 | 82.3 | 96.2 |
| Myd88 | 2 | 120 | 87.1 |
| Brsk1 | 1 | 106 | 64.4 |
| Kcng3 | 1 | 72.4 | 64.5 |
| Kcng3 | 2 | 84.5 | 65.3 |
| Kcng3 | 3 | 65 | 66.9 |
| Sned1 | 1 | 67.1 | 38.8 |
| Sned1 | 2 | 67.1 | 48 |
| Sned1 | 3 | 71.2 | 66.6 |
| Blk | 1 | 83.8 | 76.4 |
| Eme1 | 1 | 45.3 | 45.2 |
| Eme1 | 2 | 88.7 | 87.5 |
| Eme1 | 3 | 107 | 116 |
| Or51t4 | 1 | 82.9 | 61.1 |
| Or51t4 | 2 | 135 (active) | 114 |
| Or51t4 | 3 | 46.6 | 66.2 |
| Actg1 | 1 | 77.2 | 101 |
| Actg1 | 2 | 57.5 | 69.2 |
| Actg1 | 3 | 96.6 | 51.8 |
| Nucleolin | 1 | 94.4 | 70 |
| Nucleolin | 2 | 73.6 | 55.9 |
| Nucleolin | 3 | 89.2 | 82.7 |
